For this experiment, the target named is Period 2 (mouse (endogenous in bone-marrow EPCs)) (UniProt O54943). As to the kind of experiment: co-IP; lysates of WT mouse EPCs; rabbit anti-per2 or CXCR4 antibody, protein A and G plus-agarose beads; western blot with CXCR4 or per2 antibodies.

Protein sequences, listed by entry. Tags and fused reporters are not part of them.
UniProt O54943: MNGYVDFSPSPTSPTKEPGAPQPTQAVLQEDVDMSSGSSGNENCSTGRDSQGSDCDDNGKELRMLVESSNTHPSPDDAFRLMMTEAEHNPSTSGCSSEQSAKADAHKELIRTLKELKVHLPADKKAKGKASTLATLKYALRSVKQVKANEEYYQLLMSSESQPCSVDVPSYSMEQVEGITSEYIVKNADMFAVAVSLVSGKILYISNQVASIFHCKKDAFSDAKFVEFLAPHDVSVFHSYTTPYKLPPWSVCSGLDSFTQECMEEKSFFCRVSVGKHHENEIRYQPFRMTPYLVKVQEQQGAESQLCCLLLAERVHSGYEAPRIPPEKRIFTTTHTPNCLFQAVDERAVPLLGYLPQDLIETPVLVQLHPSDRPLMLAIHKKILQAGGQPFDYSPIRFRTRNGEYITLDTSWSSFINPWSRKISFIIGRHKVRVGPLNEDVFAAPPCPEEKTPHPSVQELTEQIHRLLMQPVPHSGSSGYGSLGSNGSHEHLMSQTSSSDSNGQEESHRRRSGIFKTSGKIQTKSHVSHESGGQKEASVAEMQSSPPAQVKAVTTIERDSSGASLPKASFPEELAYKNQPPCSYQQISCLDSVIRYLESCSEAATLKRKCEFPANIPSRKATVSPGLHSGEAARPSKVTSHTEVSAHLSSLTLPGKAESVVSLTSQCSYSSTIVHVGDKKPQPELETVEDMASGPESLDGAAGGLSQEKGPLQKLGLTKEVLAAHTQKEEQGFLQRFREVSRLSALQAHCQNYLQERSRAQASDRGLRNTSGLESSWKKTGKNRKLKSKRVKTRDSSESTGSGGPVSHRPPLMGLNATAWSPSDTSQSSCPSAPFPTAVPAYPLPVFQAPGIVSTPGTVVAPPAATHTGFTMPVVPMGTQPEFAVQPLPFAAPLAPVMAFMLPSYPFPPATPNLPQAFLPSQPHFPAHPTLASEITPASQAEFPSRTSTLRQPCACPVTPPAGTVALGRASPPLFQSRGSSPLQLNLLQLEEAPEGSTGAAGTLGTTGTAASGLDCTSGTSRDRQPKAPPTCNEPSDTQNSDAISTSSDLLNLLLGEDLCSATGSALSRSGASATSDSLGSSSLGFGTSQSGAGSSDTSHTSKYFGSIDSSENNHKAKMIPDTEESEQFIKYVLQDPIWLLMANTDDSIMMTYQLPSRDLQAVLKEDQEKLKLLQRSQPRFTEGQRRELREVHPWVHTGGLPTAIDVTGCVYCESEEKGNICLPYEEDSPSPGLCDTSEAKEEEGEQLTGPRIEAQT
UniProt P70658: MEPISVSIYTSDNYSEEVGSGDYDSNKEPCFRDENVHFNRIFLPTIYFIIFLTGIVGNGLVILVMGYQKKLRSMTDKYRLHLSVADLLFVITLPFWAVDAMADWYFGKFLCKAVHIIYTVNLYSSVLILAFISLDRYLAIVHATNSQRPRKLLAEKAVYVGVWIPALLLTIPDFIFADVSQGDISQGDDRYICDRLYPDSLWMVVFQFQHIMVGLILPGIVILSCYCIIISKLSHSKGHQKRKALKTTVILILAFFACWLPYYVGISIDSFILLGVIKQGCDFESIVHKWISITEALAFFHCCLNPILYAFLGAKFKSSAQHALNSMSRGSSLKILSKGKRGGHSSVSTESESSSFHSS

These are yes or no findings as the source states them, for the method shown. Binding seen in cells or lysates may run through a third protein. Some entries that bind do so weakly or less than the wild type.

Regarding “C-X-C chemokine receptor type 4 (from UniProt P70658 1-359)”, the binding entry is listed as “binds”.

Source of the values: paper PMC4119396.
